Data taken from article PMC6051995.
No constants are given. Whether binding was seen depends on the method and setting. Binding seen in cells or lysates may run through a third protein. These calls come from enrichment with a bait or labelling near it, and not all partners need be listed.

Sequences of proteins named here, by UniProt entry; tags and fusion partners are left off.
UniProt Q15910: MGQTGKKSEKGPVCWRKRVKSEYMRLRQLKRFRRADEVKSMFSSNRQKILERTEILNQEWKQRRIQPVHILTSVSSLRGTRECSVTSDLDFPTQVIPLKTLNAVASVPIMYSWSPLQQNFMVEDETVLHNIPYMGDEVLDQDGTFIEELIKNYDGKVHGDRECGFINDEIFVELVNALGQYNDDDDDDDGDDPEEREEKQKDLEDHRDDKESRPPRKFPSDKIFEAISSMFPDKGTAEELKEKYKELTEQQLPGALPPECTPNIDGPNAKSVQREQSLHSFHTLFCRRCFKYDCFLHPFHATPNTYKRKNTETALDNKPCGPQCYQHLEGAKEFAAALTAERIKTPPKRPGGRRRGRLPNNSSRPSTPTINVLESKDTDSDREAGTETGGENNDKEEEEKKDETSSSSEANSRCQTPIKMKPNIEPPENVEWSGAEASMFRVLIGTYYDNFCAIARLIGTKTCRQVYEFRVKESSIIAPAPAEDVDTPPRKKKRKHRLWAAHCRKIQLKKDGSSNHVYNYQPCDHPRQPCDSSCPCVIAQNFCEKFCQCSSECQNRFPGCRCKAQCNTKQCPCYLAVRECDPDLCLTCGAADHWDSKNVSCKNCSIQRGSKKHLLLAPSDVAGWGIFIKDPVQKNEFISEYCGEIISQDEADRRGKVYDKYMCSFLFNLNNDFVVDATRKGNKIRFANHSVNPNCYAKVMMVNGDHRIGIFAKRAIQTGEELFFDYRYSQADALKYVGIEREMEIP

Target: FLAG-EZH2 (wild-type) (UniProt Q15910)
Experiment: affinity purification with mass spectrometry; whole cell lysates of MDA-MB-231 knockdown-rescue cells expressing FLAG vector, FLAG-EZH2 or FLAG-T367A; anti-FLAG antibody beads; on-bead digestion, LC-MS/MS; SAINT and FC scoring; three biological replicates

B1: EPS8 related protein 2 (protein, UniProt Q9H6S3 1-715)
chain: MSQSGAVSCCPGATNGSLGRSDGVAKMSPKDLFEQRKKYSNSNVIMHETSQYHVQHLATFIMDKSEAITSVDDAIRKLVQLSSKEKIWTQEMLLQVNDQSLRLLDIESQEELEDFPLPTVQRSQTVLNQLRYPSVLLLVCQDSEQSKPDVHFFHCDEVEAELVHEDIESALADCRLGKKMRPQTLKGHQEKIRQRQSILPPPQGPAPIPFQHRGGDSPEAKNRVGPQVPLSEPGFRRRESQEEPRAVLAQKIEKETQILNCALDDIEWFVARLQKAAEAFKQLNQRKKGKKKGKKAPAEGVLTLRARPPSEGEFIDCFQKIKLAINLLAKLQKHIQNPSAAELVHFLFGPLDLIVNTCSGPDIARSVSCPLLSRDAVDFLRGHLVPKEMSLWESLGESWMRPRSEWPREPQVPLYVPKFHSGWEPPVDVLQEAPWEVEGLASAPIEEVSPVSRQSIRNSQKHSPTSEPTPPGDALPPVSSPHTHRGYQPTPAMAKYVKILYDFTARNANELSVLKDEVLEVLEDGRQWWKLRSRSGQAGYVPCNILGEARPEDAGAPFEQAGQKYWGPASPTHKLPPSFPGNKDELMQHMDEVNDELIRKISNIRAQPQRHFRVERSQPVSQPLTYESGPDEVRAWLEAKAFSPRIVENLGILTGPQLFSLNKEELKKVCGEEGVRVYSQLTMQKAFLEKQQSGSELEELMNKFHSMNQRRGEDS
Q: How did the binding turn out when B1 was run?
A: The binding was “binds”.

B2: MLPH (protein, UniProt Q9BV36 1-600)
chain: MGKKLDLSKLTDEEAQHVLEVVQRDFDLRRKEEERLEALKGKIKKESSKRELLSDTAHLNETHCARCLQPYQLLVNSKRQCLECGLFTCKSCGRVHPEEQGWICDPCHLARVVKIGSLEWYYEHVKARFKRFGSAKVIRSLHGRLQGGAGPELISEERSGDSDQTDEDGEPGSEAQAQAQPFGSKKKRLLSVHDFDFEGDSDDSTQPQGHSLHLSSVPEARDSPQSLTDESCSEKAAPHKAEGLEEADTGASGCHSHPEEQPTSISPSRHGALAELCPPGGSHRMALGTAAALGSNVIRNEQLPLQYLADVDTSDEESIRAHVMASHHSKRRGRASSESQIFELNKHISAVECLLTYLENTVVPPLAKGLGAGVRTEADVEEEALRRKLEELTSNVSDQETSSEEEEAKDEKAEPNRDKSVGPLPQADPEVGTAAHQTNRQEKSPQDPGDPVQYNRTTDEELSELEDRVAVTASEVQQAESEVSDIESRIAALRAAGLTVKPSGKPRRKSNLPIFLPRVAGKLGKRPEDPNADPSSEAKAMAVPYLLRRKFSNSLKSQGKDDDSFDRKSVYRGSLTQRNPNARKGMASHTFAKPVVAHQS
Q: Which binding does the source give for B2 here?
A: Its binding is “binds”.
